Experimental data as given in PMC4829867.
Results are given in words; binding and its absence hold for the method and conditions named. In cells and extracts the contact can be indirect. Some binding calls cover weakened binding; strength is not graded here.

Amino acid sequences for entries named in this document (tags omitted). A change or cut given only in a name is not applied to a line headed by its entry.
UniProt P02533: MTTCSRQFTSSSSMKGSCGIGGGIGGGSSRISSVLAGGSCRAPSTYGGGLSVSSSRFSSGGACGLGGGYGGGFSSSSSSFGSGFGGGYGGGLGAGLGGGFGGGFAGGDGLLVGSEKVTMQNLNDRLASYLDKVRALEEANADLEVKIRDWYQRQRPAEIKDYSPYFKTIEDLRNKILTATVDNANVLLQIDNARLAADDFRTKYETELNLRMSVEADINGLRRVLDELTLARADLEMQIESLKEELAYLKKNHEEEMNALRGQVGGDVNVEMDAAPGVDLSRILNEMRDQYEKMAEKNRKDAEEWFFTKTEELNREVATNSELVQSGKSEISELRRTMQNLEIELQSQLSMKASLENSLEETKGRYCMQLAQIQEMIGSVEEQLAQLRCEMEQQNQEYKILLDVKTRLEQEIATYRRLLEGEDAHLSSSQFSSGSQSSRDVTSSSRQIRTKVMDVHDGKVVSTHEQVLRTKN
UniProt P08670: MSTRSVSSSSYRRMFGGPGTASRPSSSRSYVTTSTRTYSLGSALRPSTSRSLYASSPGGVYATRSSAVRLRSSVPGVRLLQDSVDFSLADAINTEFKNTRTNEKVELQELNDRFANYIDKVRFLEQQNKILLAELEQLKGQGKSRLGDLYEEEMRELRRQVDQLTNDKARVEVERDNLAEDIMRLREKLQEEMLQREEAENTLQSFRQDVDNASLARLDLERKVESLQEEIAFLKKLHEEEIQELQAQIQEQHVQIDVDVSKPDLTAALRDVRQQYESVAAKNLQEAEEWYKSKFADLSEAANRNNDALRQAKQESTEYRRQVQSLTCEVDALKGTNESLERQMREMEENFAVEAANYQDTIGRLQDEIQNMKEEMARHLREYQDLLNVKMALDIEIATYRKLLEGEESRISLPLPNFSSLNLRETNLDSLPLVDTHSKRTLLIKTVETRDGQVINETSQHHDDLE

The substances below were run against keratin-KRT14 (human (endogenous in human epidermal keratinocytes)) (UniProt P02533) (assay: co-IP; extracts of human epidermal keratinocytes transfected with wild type or mutant Vim, 48 h post-transfection; immunoprecipitation with the mAb against KRT14; immunoblot for Vim).

Row | binding | Substance
1 | binds | V-E405G-E407G (from UniProt P08670 1-466)
2 | binds | V-E407G (from UniProt P08670 1-466)
3 | binds | V-E405G (from UniProt P08670 1-466)
